Patent US12102089B2, “Method for inactivating mold spores” (DSM IP ASSETS B.V., priority 2017, dated 2024)
This continues a long series; more values of the same kind are listed elsewhere.

System: Aspergillus niger ATCC 9029AA
Assay: Heat treatment of Aspergillus niger ATCC 9029AA spores in ice tea with natamycin, visual growth
Assay type: cell-based
Parameters: key: growth (+); no growth (−)
Procedure: Commercially available ice tea (Lipton, peach flavor, non-carbonated, 1.5 L) was adjusted to high water hardness by adding 1 ml of a solution of 39 g CaCl2 and 27 g MgCl2 added to 934 g water. ⅓ of this ice tea preparation (the pH of which was 3.15) was left as-such, ⅓ of the preparation was enriched with 5 ppm natamycin and ⅓ of the preparation was enriched with 10 ppm natamycin. Samples of 5 ml were made from each preparation in 15 ml sterile plastic tubes. Of each preparation 8 samples were pre-heated to the desired pasteurization temperature using a water bath. Temperatures used were RT, 60, 65, 70, 75, 80, 85 and 90° C. When the desired temperature was reached, 100 μl of a 2500 spores/ml spore suspension of Aspergillus niger ATCC 9029AA was added to each tube. Subsequently, the samples were kept for 30 seconds at the temperature in question in the water bath. Next, the samples were cooled on ice to a temperature of 25° C. Samples were incubated at 25° C. and visually examined for growth (formation of mold flakes or turbidity) for two months. Additionally, samples were enumerated according to ISO protocol 21527-1.2008 on day 0 (before heat treatment) and day 1 (after heat treatment) to count immediate loss of viability. Enumeration was repeated after 1 month when samples remained free from visual mold growth; most counts were reduced to <10 after heat treatment, but were still able to grow. For the results, see Table 1.

Measured: growth or no growth

C[C@@H]1C/C=C/C=C/C=C/C=C/[C@H](O[C@@H]2O[C@H](C)[C@@H](O)[C@H](N)[C@@H]2O)C[C@@H]2O[C@](O)(C[C@@H](O)C[C@H]3O[C@@H]3/C=C/C(=O)O1)C[C@H](O)[C@H]2C(=O)O [natamycin]
−: 70°C, 10 ppm, day 1 | 70°C, 10 ppm, day 2 | 70°C, 10 ppm, day 3 | 70°C, 10 ppm, day 4 | 70°C, 10 ppm, day 5 | 70°C, 10 ppm, day 6 | 70°C, 10 ppm, day 7 | 70°C, 10 ppm, day 8 | 75°C, 5 ppm, day 1 | 75°C, 5 ppm, day 2 | 75°C, 5 ppm, day 3 | 75°C, 5 ppm, day 4 | 75°C, 5 ppm, day 5 | 75°C, 5 ppm, day 6 | 75°C, 5 ppm, day 7 | 75°C, 5 ppm, day 8 | 75°C, 5 ppm, day 9 | 75°C, 5 ppm, day 10 | 75°C, 5 ppm, day 11 | 75°C, 5 ppm, day 12 | 75°C, 5 ppm, day 13 | 75°C, 5 ppm, day 14 | 75°C, 5 ppm, day 15 | 75°C, 5 ppm, day 16 | 75°C, 5 ppm, day 17 | 75°C, 5 ppm, day 50 | 75°C, 10 ppm, day 1 | 75°C, 10 ppm, day 2 | 75°C, 10 ppm, day 3 | 75°C, 10 ppm, day 4 | 75°C, 10 ppm, day 5 | 75°C, 10 ppm, day 6 | 75°C, 10 ppm, day 7 | 75°C, 10 ppm, day 8 | 75°C, 10 ppm, day 9 | 75°C, 10 ppm, day 10 | 75°C, 10 ppm, day 11 | 75°C, 10 ppm, day 12 | 75°C, 10 ppm, day 13 | 75°C, 10 ppm, day 14 | 75°C, 10 ppm, day 15 | 75°C, 10 ppm, day 16 | 75°C, 10 ppm, day 17 | 75°C, 10 ppm, day 50 | 80°C, 5 ppm, day 1 | 80°C, 5 ppm, day 2 | 80°C, 5 ppm, day 3 | 80°C, 5 ppm, day 4 | 80°C, 5 ppm, day 5 | 80°C, 5 ppm, day 6 | 80°C, 5 ppm, day 7 | 80°C, 5 ppm, day 8 | 80°C, 5 ppm, day 9 | 80°C, 5 ppm, day 10 | 80°C, 5 ppm, day 11 | 80°C, 5 ppm, day 12 | 80°C, 5 ppm, day 13 | 80°C, 5 ppm, day 14 | 80°C, 5 ppm, day 15 | 80°C, 5 ppm, day 16 | 80°C, 5 ppm, day 17 | 80°C, 5 ppm, day 50 | 80°C, 10 ppm, day 1 | 80°C, 10 ppm, day 2 | 80°C, 10 ppm, day 3 | 80°C, 10 ppm, day 4 | 80°C, 10 ppm, day 5 | 80°C, 10 ppm, day 6 | 80°C, 10 ppm, day 7 | 80°C, 10 ppm, day 8 | 80°C, 10 ppm, day 9 | 80°C, 10 ppm, day 10 | 80°C, 10 ppm, day 11 | 80°C, 10 ppm, day 12 | 80°C, 10 ppm, day 13 | 80°C, 10 ppm, day 14 | 80°C, 10 ppm, day 15 | 80°C, 10 ppm, day 16 | 80°C, 10 ppm, day 17 | 80°C, 10 ppm, day 50 | 85°C, 5 ppm, day 1 | 85°C, 5 ppm, day 2 | 85°C, 5 ppm, day 3 | 85°C, 5 ppm, day 4 | 85°C, 5 ppm, day 5 | 85°C, 5 ppm, day 6 | 85°C, 5 ppm, day 7 | 85°C, 5 ppm, day 8 | 85°C, 5 ppm, day 9 | 85°C, 5 ppm, day 10 | 85°C, 5 ppm, day 11 | 85°C, 5 ppm, day 12 | 85°C, 5 ppm, day 13 | 85°C, 5 ppm, day 14 | 85°C, 5 ppm, day 15 | 85°C, 5 ppm, day 16 | 85°C, 5 ppm, day 17 | 85°C, 5 ppm, day 50 | 85°C, 10 ppm, day 1 | 85°C, 10 ppm, day 2 | 85°C, 10 ppm, day 3 | 85°C, 10 ppm, day 4 | 85°C, 10 ppm, day 5 | 85°C, 10 ppm, day 6 | 85°C, 10 ppm, day 7 | 85°C, 10 ppm, day 8 | 85°C, 10 ppm, day 9 | 85°C, 10 ppm, day 10 | 85°C, 10 ppm, day 11 | 85°C, 10 ppm, day 12 | 85°C, 10 ppm, day 13 | 85°C, 10 ppm, day 14 | 85°C, 10 ppm, day 15 | 85°C, 10 ppm, day 16 | 85°C, 10 ppm, day 17 | 85°C, 10 ppm, day 50 | 90°C, 5 ppm, day 1 | 90°C, 5 ppm, day 2 | 90°C, 5 ppm, day 3 | 90°C, 5 ppm, day 4 | 90°C, 5 ppm, day 5 | 90°C, 5 ppm, day 6 | 90°C, 10 ppm, day 1 | 90°C, 10 ppm, day 2 | 90°C, 10 ppm, day 3 | 90°C, 10 ppm, day 4 | 90°C, 10 ppm, day 5 | 90°C, 10 ppm, day 6 | 90°C, 10 ppm, day 7 | 90°C, 10 ppm, day 8 | 90°C, 10 ppm, day 9 | 90°C, 10 ppm, day 10 | 90°C, 10 ppm, day 11 | 90°C, 10 ppm, day 12 | 90°C, 10 ppm, day 13 | 90°C, 10 ppm, day 14 | 90°C, 10 ppm, day 15 | 90°C, 10 ppm, day 16 | 90°C, 10 ppm, day 17 | 90°C, 10 ppm, day 50 | RT, 5 ppm, day 1 | RT, 5 ppm, day 2 | RT, 5 ppm, day 3 | RT, 5 ppm, day 4 | RT, 5 ppm, day 5 | RT, 5 ppm, day 6 | RT, 5 ppm, day 7 | RT, 5 ppm, day 8 | RT, 5 ppm, day 9 | RT, 10 ppm, day 1 | RT, 10 ppm, day 2 | RT, 10 ppm, day 3 | RT, 10 ppm, day 4 | RT, 10 ppm, day 5 | RT, 10 ppm, day 6 | RT, 10 ppm, day 7 | RT, 10 ppm, day 8 | RT, 10 ppm, day 9 | RT, 10 ppm, day 10 | RT, 10 ppm, day 11
+: 90°C, 5 ppm, day 7 | 90°C, 5 ppm, day 8 | 90°C, 5 ppm, day 9 | 90°C, 5 ppm, day 10 | 90°C, 5 ppm, day 11 | 90°C, 5 ppm, day 12 | 90°C, 5 ppm, day 13 | 90°C, 5 ppm, day 14 | 90°C, 5 ppm, day 15 | 90°C, 5 ppm, day 16 | 90°C, 5 ppm, day 17 | 90°C, 5 ppm, day 50 | RT, 5 ppm, day 10 | RT, 5 ppm, day 11 | RT, 5 ppm, day 12 | RT, 5 ppm, day 13 | RT, 5 ppm, day 14 | RT, 5 ppm, day 15 | RT, 5 ppm, day 16 | RT, 5 ppm, day 17 | RT, 5 ppm, day 50 | RT, 10 ppm, day 12 | RT, 10 ppm, day 13 | RT, 10 ppm, day 14 | RT, 10 ppm, day 15 | RT, 10 ppm, day 16 | RT, 10 ppm, day 17 | RT, 10 ppm, day 50
